Here are results for one molecule from publication PMC9663158.

Protein sequences, listed by entry. Tags and fused reporters are not part of them.
UniProt Q15561: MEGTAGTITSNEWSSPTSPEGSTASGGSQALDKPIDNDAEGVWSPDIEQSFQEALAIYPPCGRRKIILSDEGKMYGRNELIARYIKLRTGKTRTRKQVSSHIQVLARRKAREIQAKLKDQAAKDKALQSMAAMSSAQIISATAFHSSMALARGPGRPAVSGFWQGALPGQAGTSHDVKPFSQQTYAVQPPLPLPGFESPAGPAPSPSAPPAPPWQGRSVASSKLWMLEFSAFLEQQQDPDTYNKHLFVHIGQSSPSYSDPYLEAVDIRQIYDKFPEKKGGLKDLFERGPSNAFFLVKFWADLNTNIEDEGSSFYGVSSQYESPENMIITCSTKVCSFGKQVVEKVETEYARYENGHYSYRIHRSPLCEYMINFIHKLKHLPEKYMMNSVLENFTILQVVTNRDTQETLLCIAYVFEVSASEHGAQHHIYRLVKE

This experiment has as its target FLAG-tagged TEAD4 (human) (UniProt Q15561). The experiment can be described thus: co-IP; 293T cells cotransfected with exogenous RAD21 and FLAG-tagged TEAD4; IP lysis buffer 50 mM Tris-HCl, 150 mM NaCl, 1.0% NP-40; protein G Dynabeads overnight at 4°C; immunoblotting.

Results are given in words; binding and its absence hold for the method and conditions named. Binding seen in cells or lysates may run through a third protein. Some binding calls cover weakened binding; strength is not graded here.

B1: exogenous RAD21 (protein, UniProt O60216 1-631)
chain: MFYAHFVLSKRGPLAKIWLAAHWDKKLTKAHVFECNLESSVESIISPKVKMALRTSGHLLLGVVRIYHRKAKYLLADCNEAFIKIKMAFRPGVVDLPEENREAAYNAITLPEEFHDFDQPLPDLDDIDVAQQFSLNQSRVEEITMREEVGNISILQENDFGDFGMDDREIMREGSAFEDDDMLVSTTTSNLLLESEQSTSNLNEKINHLEYEDQYKDDNFGEGNDGGILDDKLISNNDGGIFDDPPALSEAGVMLPEQPAHDDMDEDDNVSMGGPDSPDSVDPVEPMPTMTDQTTLVPNEEEAFALEPIDITVKETKAKRKRKLIVDSVKELDSKTIRAQLSDYSDIVTTLDLAPPTKKLMMWKETGGVEKLFSLPAQPLWNNRLLKLFTRCLTPLVPEDLRKRRKGGEADNLDEFLKEFENPEVPREDQQQQHQQRDVIDEPIIEEPSRLQESVMEASRTNIDESAMPPPPPQGVKRKAGQIDPEPVMPPQQVEQMEIPPVELPPEEPPNICQLIPELELLPEKEKEKEKEKEDDEEEEDEDASGGDQDQEERRWNKRTQQMLHGLQRALAKTGAESISLLELCRNTNRKQAAAKFYSFLVLKKQQAIELTQEEPYSDIIATPGPRFHII
Turning to B1, the binding entry is reported as “binds”.
